Among all 310,000 compounds or so, about 17,000 (5.5%) were called active. Inconclusive results, whose numbers are uncertain, are shown with a selection of clear calls. The call rests on the fitted dose curve; in most records, active means well fitted inhibition curve with a large enough effect; inconclusive means small, poorly fitted or top-dose-only effect, or effect the other way; inactive means no such curve, though single readings can be large or run the other way. Potencies of inconclusive entries are doubtful fits and often do not repeat.
The compounds below were run against Nuclear receptor ROR-gamma (Mus musculus) (UniProt P51450) (assay: qHTS for inhibitors of ROR gamma transcriptional activity). Conditions: Drosophila S2 Gal4-RORgamma UAS-luciferase reporter, 20 h; activity change, negative = inhibition: at 53.6 µM (top of the series).
Summary of the method: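 Drosophila S2 cells stably expressing Gal4-DBD/mouse RORγ fusion under metallothionein promoter plus UAS-luciferase; compound 1 h, then 700 uM CuSO4 induction for 20 h at ambient temperature; inhibition read as reduced luminescence.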
Further: nearly all actives have a fitted effect of over 60% in size.
On the % scale 0 is the no-effect control and ±100 the full control effect; potency means the concentration at half of the fitted maximal effect.

Sequences of proteins named here, by UniProt entry; tags and fusion partners are left off. A change or cut given only in a name is not applied to a line headed by its entry.
UniProt P51450: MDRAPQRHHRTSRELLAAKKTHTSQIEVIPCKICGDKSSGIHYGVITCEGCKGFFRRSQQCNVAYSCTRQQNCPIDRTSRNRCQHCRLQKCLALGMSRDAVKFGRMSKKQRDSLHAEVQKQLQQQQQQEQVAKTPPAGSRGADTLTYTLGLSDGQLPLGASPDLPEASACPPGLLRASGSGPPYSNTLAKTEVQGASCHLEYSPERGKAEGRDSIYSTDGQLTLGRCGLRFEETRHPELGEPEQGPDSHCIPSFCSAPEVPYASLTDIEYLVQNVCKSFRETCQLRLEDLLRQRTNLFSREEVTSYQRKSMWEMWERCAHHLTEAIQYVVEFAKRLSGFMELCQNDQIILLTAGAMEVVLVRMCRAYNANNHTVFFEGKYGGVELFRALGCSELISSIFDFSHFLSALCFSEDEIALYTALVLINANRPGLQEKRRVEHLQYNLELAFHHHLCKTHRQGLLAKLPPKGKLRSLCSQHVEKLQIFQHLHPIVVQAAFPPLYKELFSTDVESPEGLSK

Row | Structure (SMILES) | activity change, negative = inhibition | Potency
1 | NCCCCCCNc1nc2c(N)ncnc2n1[C@@H]1O[C@@H]2COP(=O)(O)O[C@H]2[C@H]1O | inactive: 0.414% | 
2 | CCCN1CCc2c(sc(NC(=O)c3ccc(S(=O)(=O)N(C)c4ccccc4)cc3)c2C(=O)NC)C1 |  | inconclusive: 1 µM [activator, full curve]
3 | COc1cccc(C(=O)COc2ccccc2N2C(=O)C3C4C=CC(C4)C3C2=O)c1 (centres undefined) |  | inconclusive: 7.94 µM [activator, partial curve, poor fit]
4 | Cc1ccc(C(=O)c2no[n+]([O-])c2C(=O)c2ccc(C)cc2)cc1 |  | inconclusive: 22.4 µM [inhibitor, single point]
5 | Cc1ccc(S(=O)(=O)N(CC(=O)N=Nc2c(O)[nH]c3ccccc23)c2ccc(C)c(C)c2)cc1 |  | inconclusive: 7.94 µM [activator, single point]
6 | CCOc1ccccc1NC(=O)c1nnn(-c2ccc3c(c2)OCCO3)c1N |  | inconclusive: 1.41 µM [inhibitor, partial curve]
7 | Cc1ccc(NC(=O)c2cccs2)cc1 |  | inconclusive: 0.0708 µM [activator, full curve]
8 | CCc1ccc(NC(=O)CSc2nc3ccccc3c(=O)n2CCCC(=O)N2CCCC2)cc1 |  | inconclusive: 14.1 µM [activator, single point]
9 | Clc1ccc([C@H](Cn2ccnc2)OCc2c(Cl)cccc2Cl)c(Cl)c1 |  | inconclusive: 1.12 µM [inhibitor, partial curve]
10 | Cc1ccc(N2CN=C(c3ccccc3)NC2=S)cc1 |  | inconclusive: 1.26 µM [inhibitor, partial curve, poor fit]
11 | Cn1c(NC2CCCCC2)cc(=O)n(C)c1=O | inactive: -15.2% | 
12 | O=S(=O)(Cc1ccccc1)c1cnc2ccccc2n1 |  | inconclusive: 10 µM [inhibitor, partial curve]
13 | COc1ccc2nc(Nc3ccccc3)sc2c1 |  | inconclusive: 35.5 µM [inhibitor, single point]
14 | COc1ccc(CN(C(=O)c2cc3ccccc3oc2=O)C2CCS(=O)(=O)C2)cc1OC (centres undefined) | inactive: -0.775% | 
15 | CCOC(=O)c1c(NC(=S)Nc2cccc(C)c2)sc2c1CC(C)(C)SC2 |  | active: 2 µM
16 | COc1ccccc1CNC(=O)CCC(=O)N1CCOc2ccc(Cl)cc21 |  | inconclusive: 31.6 µM [activator, single point]
17 | Cc1cc(C(=O)NNC(=S)NC2CCCCC2)cs1 |  | active: 3.16 µM
18 | CS(=O)(=O)N1N=C(c2cccs2)CC1c1ccc(Cl)o1 (centres undefined) |  | inconclusive: 20 µM [activator, single point]
19 | Cc1ccnc(SC2CC(=O)N(c3ccc(Cl)cc3)C2=O)n1 (centres undefined) |  | inconclusive: 15.8 µM [inhibitor, single point]
